This data set is described as follows: Example 7: shading of white cotton washed with Persil Colour containing direct violet 51 and bleach system. As to the method: White non-mercerised cotton sheeting was washed at 40°C in 5g/L Persil Colour for 30 minutes with a liquor to cloth ratio of 60:1. Persil Colour is a zeolite/anionic/non-ionic surfactant based washing powder. Direct Violet 51 was added to the powder such that 100 ppb of direct violet 51 was in the wash liquor.
The experiment was repeated with the addition of 10 micromolar catalyst with 10 millimolar peroxide and 2 micromolar catalyst with 2 millimolar peroxide. Following rinsing and drying the colour of the cloth was measured relative to a white cotton control cloth washed without addition of direct violet 51.

The structures appear in SMILES notation.

For the compound `COc1cc(N=Nc2c(C)cc(C)cc2S(=O)(=O)[O-])c(C)cc1N=Nc1c(S(=O)(=O)[O-])cc2cc(Nc3ccccc3)ccc2c1O.[Na+].[Na+]` [Direct violet 51], the “fraction of the dye bleached in solution” value (high catalyst concentration (10 micromolar catalyst, 10 millimolar H2O2)) is recorded as “approximately 2/3”. Besides, the loss of dye entry (low catalyst concentration (2 micromolar catalyst, 2 millimolar H2O2)) is “no dye is lost”.

For the origin of these results see patent publication EP2228429A1, “Shading dye and catalyst combination” (Unilever PLC, priority 2009, dated 2010).
